Measured values reported in paper PMC7349982.
These are yes or no findings as the source states them, for the method shown. Binding can be weak; no strength is given. Sequences can lack the tags named with a protein.

Tests used:
[1] = biological target: T1, SpoIIE (bacterial two-hybrid fusion) (Bacillus subtilis) (UniProt P37475); assay: two-hybrid; bacterial two-hybrid (BACTH): fusions to adenylate cyclase fragments T18 and T25 co-transformed into E. coli BTH101 (Δcya); spotted on LB plates with X-Gal and 0.5 mM IPTG, 24-48 h at 30 °C; blue colour and β-galactosidase activity (Miller units)
T1 sequence: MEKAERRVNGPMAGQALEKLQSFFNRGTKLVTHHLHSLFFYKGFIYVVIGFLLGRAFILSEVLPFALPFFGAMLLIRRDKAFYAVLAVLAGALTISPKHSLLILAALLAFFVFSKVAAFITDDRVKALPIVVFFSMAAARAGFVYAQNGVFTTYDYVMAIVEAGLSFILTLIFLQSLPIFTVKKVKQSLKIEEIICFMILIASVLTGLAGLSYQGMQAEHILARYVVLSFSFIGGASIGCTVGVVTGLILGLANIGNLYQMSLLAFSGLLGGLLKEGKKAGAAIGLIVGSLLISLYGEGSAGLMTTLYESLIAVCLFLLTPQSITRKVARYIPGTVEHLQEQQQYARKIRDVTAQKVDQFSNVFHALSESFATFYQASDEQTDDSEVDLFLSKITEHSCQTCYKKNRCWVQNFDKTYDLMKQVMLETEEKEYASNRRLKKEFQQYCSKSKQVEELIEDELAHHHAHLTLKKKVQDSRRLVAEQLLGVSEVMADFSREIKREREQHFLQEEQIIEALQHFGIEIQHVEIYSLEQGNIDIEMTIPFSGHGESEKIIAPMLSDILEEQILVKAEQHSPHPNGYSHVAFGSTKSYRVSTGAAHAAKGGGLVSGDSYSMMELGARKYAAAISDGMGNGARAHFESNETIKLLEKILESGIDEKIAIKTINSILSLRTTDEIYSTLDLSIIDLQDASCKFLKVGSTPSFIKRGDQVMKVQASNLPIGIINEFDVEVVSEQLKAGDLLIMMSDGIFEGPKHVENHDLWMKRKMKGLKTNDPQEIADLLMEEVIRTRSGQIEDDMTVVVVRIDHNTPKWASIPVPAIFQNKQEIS

[2] = biological target: SpoIIE domains I+II (bacterial two-hybrid fusion) (Bacillus subtilis); assay: as above

Row | Molecule | binding [1] | binding [2]
1 | RodZ (bacterial two-hybrid fusion) (Bacillus subtilis) | binds | –
2 | GpsB (bacterial two-hybrid fusion) (protein, UniProt P0CI74 1-98) MLADKVKLSAKEILEKEFKTGVRGYKQEDVDKFLDMIIKDYETFHQEIEELQQENLQLKKQLEEASKKQPVQSNTTNFDILKRLSNLEKHVFGSKLYD | – | binds weakly
